Source: patent US9393288B2, “Methods of treating diseases associated with PPARγ” (The University of Vermont and State Agricultural College, priority 2012, dated 2016)
At least one structure is not confirmed: it was looked up by name or label, or the drawing left a doubt.

System: parenchymal arterioles (PA)
Assay: SKCa/IKCa channel blockers added to isolated pressurized PA
Parameters: species or system rat
Settings: apamin 3×10^−7 M, TRAM-34 10^−6 M in the bath
Procedure: Vascular Reactivity and Structural Characteristics in PA and MCA: For the first set of experiments, PA and MCA were equilibrated for 1 hour at 25 mmHg, after which myogenic activity was determined by stepwise increases in pressure from 40 to 100 mmHg for PA or 50 to 175 mmHg for MCA. ID and WT were measured at each pressure once stable. Changes in ID and WT were measured in PA only in response to small- (SKCa) and intermediate- (IKCa) conductance calcium-activated potassium channels blockers, apamin (3×10^−7 M) and TRAM-34 (10^−6 M), respectively. PA are unique in that the contribution of endothelium-derived hyperpolarizing factors (EDHF) to tone is greater than most vessels Cipolla et al. (2009) Stroke 40, 1451-1457. Thus, inhibition of SKCa/IKCa channels, a critical component in the EDHF pathway, causes constriction in PA Cipolla et al. (2009) Stroke 40, 1451-1457. We therefore assessed the effect of relaxin on constriction of PA in response to SKCa/IKCa channel inhibition in order to assess this unique pathway. To obtain structural measurements, ID and WT were recorded at pressures between 5 to 200 mmHg for PA or 5 to 175 mmHg for MCA after papaverine (10^−4 M) and diltiazem (10^−5 M) were added to the bath. For the second set of experiments in which animals were treated with relaxin+GW9662, passive structural measurements were made as described above.

Q: For `CC(C)C[C@@H]1NC(=O)[C@H](C)NC(=O)[C@H]([C@@H](C)O)NC(=O)[C@H](CCC(=O)O)NC(=O)[C@@H]2CCCN2C(=O)[C@H](C)NC(=O)[C@H](CCCCN)NC(=O)[C@@H]2CSSC[C@@H](C(=O)N[C@@H](CCC(N)=O)C(=O)N[C@@H](CCC(N)=O)C(=O)N[C@@H](Cc3cnc[nH]3)C(N)=O)NC(=O)[C@H](CCCNC(=N)N)NC(=O)[C@H](CCCNC(=N)N)NC(=O)[C@H](C)NC(=O)[C@H](CSSC[C@H](N)C(=O)N[C@@H](CC(N)=O)C(=O)N2)NC1=O` [Apamin], which “Vasoconstriction of PA” value is on record?
A: The value was “minimal vasoconstriction”.
